Protein sequences, listed by entry. Tags and fused reporters are not part of them.
UniProt Q9Z204: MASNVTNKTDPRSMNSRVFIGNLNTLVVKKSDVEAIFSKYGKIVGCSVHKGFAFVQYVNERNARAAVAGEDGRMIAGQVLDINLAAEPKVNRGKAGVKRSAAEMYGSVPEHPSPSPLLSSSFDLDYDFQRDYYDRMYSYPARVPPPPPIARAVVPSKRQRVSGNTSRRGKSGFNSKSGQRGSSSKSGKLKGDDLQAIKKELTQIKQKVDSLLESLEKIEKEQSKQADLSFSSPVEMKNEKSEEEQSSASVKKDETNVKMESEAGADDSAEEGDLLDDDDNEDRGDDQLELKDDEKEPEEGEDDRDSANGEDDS
UniProt Q6P4T2: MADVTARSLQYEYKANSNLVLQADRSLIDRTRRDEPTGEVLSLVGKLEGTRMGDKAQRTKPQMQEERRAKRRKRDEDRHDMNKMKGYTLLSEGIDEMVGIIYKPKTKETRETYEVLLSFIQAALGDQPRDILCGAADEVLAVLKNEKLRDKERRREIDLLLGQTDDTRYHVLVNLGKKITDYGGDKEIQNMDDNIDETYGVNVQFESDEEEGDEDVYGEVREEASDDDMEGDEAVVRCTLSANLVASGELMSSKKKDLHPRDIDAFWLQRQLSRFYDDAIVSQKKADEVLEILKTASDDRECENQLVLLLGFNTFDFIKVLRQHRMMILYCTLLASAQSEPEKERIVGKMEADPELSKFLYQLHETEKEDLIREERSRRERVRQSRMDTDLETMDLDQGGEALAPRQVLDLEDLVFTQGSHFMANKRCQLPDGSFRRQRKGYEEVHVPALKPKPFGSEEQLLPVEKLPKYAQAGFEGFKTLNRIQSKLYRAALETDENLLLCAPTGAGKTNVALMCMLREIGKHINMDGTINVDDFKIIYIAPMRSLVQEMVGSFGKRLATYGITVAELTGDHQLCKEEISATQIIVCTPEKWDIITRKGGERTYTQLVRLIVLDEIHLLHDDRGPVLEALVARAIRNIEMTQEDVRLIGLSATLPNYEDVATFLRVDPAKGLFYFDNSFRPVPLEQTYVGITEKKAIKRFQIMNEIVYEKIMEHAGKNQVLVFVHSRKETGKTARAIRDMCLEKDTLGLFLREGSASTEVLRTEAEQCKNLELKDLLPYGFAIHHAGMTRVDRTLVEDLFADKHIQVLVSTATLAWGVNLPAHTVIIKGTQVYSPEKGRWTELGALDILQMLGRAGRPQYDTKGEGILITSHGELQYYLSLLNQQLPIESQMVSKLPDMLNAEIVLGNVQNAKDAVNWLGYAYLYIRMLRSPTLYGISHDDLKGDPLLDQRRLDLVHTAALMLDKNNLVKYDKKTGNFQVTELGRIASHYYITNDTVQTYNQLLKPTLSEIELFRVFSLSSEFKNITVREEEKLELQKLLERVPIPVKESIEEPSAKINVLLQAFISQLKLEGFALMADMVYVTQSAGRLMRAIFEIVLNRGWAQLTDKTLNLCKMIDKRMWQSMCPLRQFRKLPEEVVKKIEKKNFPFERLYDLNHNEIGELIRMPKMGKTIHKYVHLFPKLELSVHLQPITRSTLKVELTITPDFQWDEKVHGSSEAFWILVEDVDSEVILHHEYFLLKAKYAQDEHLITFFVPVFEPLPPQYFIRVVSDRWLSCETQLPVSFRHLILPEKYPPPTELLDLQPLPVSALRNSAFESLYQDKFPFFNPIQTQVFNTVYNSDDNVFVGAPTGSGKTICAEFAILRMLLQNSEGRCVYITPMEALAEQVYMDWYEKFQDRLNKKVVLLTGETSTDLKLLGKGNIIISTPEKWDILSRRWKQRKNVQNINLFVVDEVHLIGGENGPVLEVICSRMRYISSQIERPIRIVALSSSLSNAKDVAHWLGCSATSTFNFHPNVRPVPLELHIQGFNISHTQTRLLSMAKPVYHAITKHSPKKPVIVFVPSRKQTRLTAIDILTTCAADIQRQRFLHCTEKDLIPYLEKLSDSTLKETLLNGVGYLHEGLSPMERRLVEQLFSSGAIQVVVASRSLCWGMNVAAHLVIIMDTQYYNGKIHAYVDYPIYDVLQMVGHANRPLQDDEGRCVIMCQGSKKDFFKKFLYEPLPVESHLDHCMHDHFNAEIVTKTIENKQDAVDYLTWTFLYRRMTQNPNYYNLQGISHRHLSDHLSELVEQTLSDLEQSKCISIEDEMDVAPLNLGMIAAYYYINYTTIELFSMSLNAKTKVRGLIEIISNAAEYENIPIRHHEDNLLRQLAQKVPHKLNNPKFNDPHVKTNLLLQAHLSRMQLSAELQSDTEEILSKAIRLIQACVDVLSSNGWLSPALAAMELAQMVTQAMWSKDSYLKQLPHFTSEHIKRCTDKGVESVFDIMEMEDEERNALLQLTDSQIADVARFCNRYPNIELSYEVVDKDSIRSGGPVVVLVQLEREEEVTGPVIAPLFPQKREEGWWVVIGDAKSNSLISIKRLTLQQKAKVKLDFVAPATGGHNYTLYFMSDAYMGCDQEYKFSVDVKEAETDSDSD
UniProt Q9R0U0: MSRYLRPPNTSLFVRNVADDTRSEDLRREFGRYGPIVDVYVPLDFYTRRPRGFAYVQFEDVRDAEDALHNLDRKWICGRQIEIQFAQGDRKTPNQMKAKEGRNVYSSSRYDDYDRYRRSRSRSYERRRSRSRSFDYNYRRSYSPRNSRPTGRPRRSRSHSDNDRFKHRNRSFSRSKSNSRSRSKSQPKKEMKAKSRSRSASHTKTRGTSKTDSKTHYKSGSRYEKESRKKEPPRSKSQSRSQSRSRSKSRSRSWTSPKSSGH
UniProt P70372: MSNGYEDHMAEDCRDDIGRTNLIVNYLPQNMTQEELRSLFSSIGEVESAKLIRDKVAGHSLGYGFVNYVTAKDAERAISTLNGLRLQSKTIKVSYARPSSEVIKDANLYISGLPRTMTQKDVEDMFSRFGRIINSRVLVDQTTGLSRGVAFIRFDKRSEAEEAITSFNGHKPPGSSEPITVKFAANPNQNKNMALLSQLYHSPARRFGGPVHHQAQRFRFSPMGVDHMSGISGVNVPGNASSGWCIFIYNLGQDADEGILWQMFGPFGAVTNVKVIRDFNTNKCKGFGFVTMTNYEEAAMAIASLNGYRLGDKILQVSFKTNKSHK

According to article PMC11967818:

molecular target: hnRNPC (mouse (endogenous in P8 testes)) (UniProt Q9Z204); experiment: affinity purification with mass spectrometry; P8 mouse testis lysate; immunoprecipitation with anti-hnRNPC antibody or IgG on Protein G magnetic beads; SDS-PAGE, in-gel trypsin digestion, LC-MS/MS (Q Exactive), MaxQuant against Mus musculus

binding, binds:
SNRNP200 (from UniProt Q6P4T2 1-2136)
SRSF10 (from UniProt Q9R0U0 1-262)
HuR (from UniProt P70372 1-326)

Results are given in words; binding and its absence hold for the method and conditions named. Binding seen in cells or lysates may run through a third protein. Here binding means that the protein was enriched with, or labelled near, the bait; the list need not be complete.
